Data source: PubChem BioAssay AID1159584 (Peter MacCallum Cancer Centre, 2016)
Assay: 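Knock-downs that harm CDH1-null cells more than parental MCF10A cells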 (primary screen). Cells: human MCF10A breast epithelial cells, parental and CDH1-null. Reagent: siRNA against human genes. Measured: 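Cell viability by CellTiter-Glo ATP luminescence, each line scaled to the mean of mock wells across plates, then CDH1-null over parental ratio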. Scale: CDH1-null / parental viability ratio: higher = CDH1-null cells survive relatively better than parental.
Shown is an unselected part of about 18,000 reagents. Not all columns of the deposit are shown. Reagent sequences are not shown. Not given: the amount of reagent, the time to read-out.

PYM1 scored CDH1-null / parental viability ratio 0.99.
Knock-down of SNRPB2 gave: CDH1-null / parental viability ratio 0.94.
With knock-down of SEMA5B, the record shows CDH1-null / parental viability ratio 0.77.
UBQLN2 scored CDH1-null / parental viability ratio 1.21.
Silencing of OR4K13 resulted in: CDH1-null / parental viability ratio 1.08.
For H2BC3, the values are CDH1-null / parental viability ratio 1.16.
Silencing of PGM5 came out at: CDH1-null / parental viability ratio 1.01.
After knock-down of ATP6V0B, the screen gave CDH1-null / parental viability ratio 1.34.
Knock-down of DNAJA2 gave: CDH1-null / parental viability ratio 0.85.
For EMCN, the entry reads CDH1-null / parental viability ratio 1.27.
Depletion of RAPGEF3 came out at: CDH1-null / parental viability ratio 0.74.
After knock-down of GOLGB1 the results were CDH1-null / parental viability ratio 1.52.
NAAA gave CDH1-null / parental viability ratio 1.04.
EYA4 scored CDH1-null / parental viability ratio 1.28.
Silencing of ZXDA resulted in: CDH1-null / parental viability ratio 0.98.
Knock-down of NDUFB5 came out at: CDH1-null / parental viability ratio 0.98.
Knock-down of BRK1 gave: CDH1-null / parental viability ratio 1.02.
Depletion of RAB31 gave: CDH1-null / parental viability ratio 1.
After knock-down of BMP5 the results were CDH1-null / parental viability ratio 1.14.
For RCN1, the values are CDH1-null / parental viability ratio 1.12.
Against SCIN the deposit lists CDH1-null / parental viability ratio 1.02.
With knock-down of ALG14 the results were CDH1-null / parental viability ratio 1.04.
For NDUFB10 the deposit lists CDH1-null / parental viability ratio 0.78.
C12orf71 scored CDH1-null / parental viability ratio 0.73.

4 of these entries, reformatted:
{"gene": "PGM5", "CDH1-null / parental viability ratio": 1.01}
{"gene": "ATP6V0B", "CDH1-null / parental viability ratio": 1.34}
{"gene": "DNAJA2", "CDH1-null / parental viability ratio": 0.85}
{"gene": "EMCN", "CDH1-null / parental viability ratio": 1.27}
